PubChem BioAssay AID504774, Drosophila RNAi Screening Center – 2011
Test: 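Genes required for cells to withstand methyl methanesulphonate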 (primary screen). Cells: Drosophila Kc167 cells. Knock-down reagent: long dsRNA against Drosophila genes, about 0.25 µg dsRNA per well. Timing: about 6 days: 3 days knock-down, then 3 days with or without MMS. Conditions: methyl methanesulphonate 0.004% (w/v) for 3 days after knock-down. Detection: 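Viability in wells given MMS, read as ATP luminescence, normalised by quantiles plate by plate and averaged across replicates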. Reading the numbers: mean viability with MMS and viability with MMS: higher = more surviving cells after MMS.
In all, the deposit lists about 23,000 reagents; below is an unselected part of those that have a named target and a result. 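Values are quantile-normalised luminescence on an arbitrary scale; higher means more cells surviving MMS.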

no.	Gene	dsRNA	mean viability with MMS	viability with MMS, replicate 1	viability with MMS, replicate 2
1	CG4610	DRSC04477	3.54e6	3.95e6	4.09e6
2	CG4610	DRSC22397	3.46e6	3.90e6	4.00e6
3	Pdi (Protein disulfide isomerase)	DRSC11250	3.55e6	4.04e6	4.00e6
4	mRpS5 (mitochondrial ribosomal protein S5)	DRSC21380	3.52e6	4.06e6	3.95e6
5	Mst87F (Male-specific RNA 87F)	DRSC16747	3.82e6	4.48e6	4.16e6
6	eEFSec	DRSC04571	3.54e6	4.02e6	4.00e6
7	CG4629	DRSC00659	3.66e6	4.07e6	4.26e6
8	Flo1 (Flotillin 1)	DRSC07427	3.67e6	4.18e6	4.14e6
9	CG10064	DRSC09689	3.47e6	4.01e6	3.87e6
10	ITP (Ion transport peptide)	DRSC04222	3.50e6	4.15e6	3.78e6
11	dgt2 (dim gamma-tubulin 2)	DRSC02548	3.53e6	4.02e6	4.00e6
12	Dab (Disabled)	DRSC11140	3.59e6	3.85e6	3.67e6
13	Nmda1 (N-methyl-D-aspartate receptor-associated protein)	DRSC07479	3.39e6	3.75e6	3.88e6
14	CG30472	DRSC22245	3.44e6	3.90e6	3.96e6

Next part; the last 2 above are carried over.
no.	Gene	dsRNA	mean viability with MMS	viability with MMS, replicate 1	viability with MMS, replicate 2
13	Nmda1 (N-methyl-D-aspartate receptor-associated protein)	DRSC07479	3.39e6	3.75e6	3.88e6
14	CG30472	DRSC22245	3.44e6	3.90e6	3.96e6
15	Dus3 (Dihydrouridine synthase 3)	DRSC02059	3.33e6	3.70e6	3.80e6
16	mRpL33 (mitochondrial ribosomal protein L33)	DRSC18319	3.66e6	4.39e6	3.92e6
17	CG15533	DRSC15069	3.58e6	4.13e6	3.98e6
18	CG9801	DRSC16568	3.59e6	4.06e6	4.13e6
19	CG5556	DRSC00687	3.59e6	4.02e6	4.14e6
20	lark	DRSC11362	3.27e6	3.85e6	3.64e6
21	CG5065	DRSC06912	3.59e6	4.13e6	4.00e6
22	Pi3K92E (Phosphatidylinositol 3-kinase 92E)	DRSC16788	3.71e6	4.16e6	4.20e6
23	CG16959	DRSC10230	3.66e6	4.17e6	4.10e6
24	CG15482	DRSC02492	3.63e6	4.11e6	4.11e6
25	TP53INP (Tumor protein p53 inducible nuclear protein)	DRSC08178	3.51e6	3.95e6	4.02e6
26	TP53INP (Tumor protein p53 inducible nuclear protein)	DRSC22552	3.64e6	4.14e6	4.06e6
27	CG34370	DRSC03913	3.60e6	4.06e6	4.10e6
28	CG34370	DRSC04142	3.52e6	4.03e6	3.96e6
29	CG34370	DRSC04143	3.56e6	4.03e6	4.04e6
30	CG34370	DRSC04144	3.50e6	3.95e6	3.97e6
